{"source": "PubChem BioAssay AID1053208, Peter MacCallum Cancer Centre – 2014", "screen": "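Find knock-downs that sensitise mouse osteosarcoma cells to doxorubicin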 (primary screen)", "cell system": "mouse osteosarcoma cells, early-passage culture from an engineered mouse model of fibroblastic bone tumour", "reagent": "siRNA pool against mouse genes, 40 nM", "duration": "about 120 h (48 h before drug, then 72 h with drug)", "conditions": "doxorubicin 100 nM for 72 h, roughly 30-40% inhibitory dose", "read-out": "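Luminescent ATP signal taken as viability with or without 100 nM doxorubicin for 72 h; mean of two wells set against non-targeting siRNA and turned into robust z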", "scale": "viability z-score with doxorubicin: higher = more viable cells under doxorubicin; viability z-score without drug: higher = more viable cells with knock-down alone", "active means": "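a pool counts as active when its viability z-score with doxorubicin is -2 or below and its z-score without drug lies between -2 and 2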", "note": "Here is a random part of about 17,000 reagents tested. 788 of them (4.7%) count as active. 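Calls rest on z-score classes alone; an extra cut-off of viability at most 70% of control was not applied to them.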 Further read-outs or replicates are left out here."}
The opening 2 records, ahead of the listing:
{"gene knocked down":"Prrc2a (GeneID 53761)","combined z-score class":"no change with or without drug","viability z-score with doxorubicin":1.01,"viability z-score without drug":-0.17,"Outcome":"inactive"}
{"gene knocked down":"4930544G11Rik (GeneID 67653)","combined z-score class":"high cell count without drug only","viability z-score with doxorubicin":1.35,"viability z-score without drug":2.02,"Outcome":"inactive"}

The listing, from the first entry:
{"gene knocked down":"Prrc2a (GeneID 53761)","combined z-score class":"no change with or without drug","viability z-score with doxorubicin":1.01,"viability z-score without drug":-0.17,"Outcome":"inactive"}
{"gene knocked down":"4930544G11Rik (GeneID 67653)","combined z-score class":"high cell count without drug only","viability z-score with doxorubicin":1.35,"viability z-score without drug":2.02,"Outcome":"inactive"}
{"gene knocked down":"Chrac1 (GeneID 93696)","combined z-score class":"no change with or without drug","viability z-score with doxorubicin":0,"viability z-score without drug":0.17,"Outcome":"inactive"}
{"gene knocked down":"Fosl1 (GeneID 14283)","combined z-score class":"no change with or without drug","viability z-score with doxorubicin":-0.67,"viability z-score without drug":1.18,"Outcome":"inactive"}
{"gene knocked down":"Rbm8a (GeneID 60365)","combined z-score class":"low cell count with and without drug","viability z-score with doxorubicin":-7.76,"viability z-score without drug":-3.2,"Outcome":"inactive"}
{"gene knocked down":"Or10u3 (GeneID 258266)","combined z-score class":"no change with or without drug","viability z-score with doxorubicin":0.56,"viability z-score without drug":0.51,"Outcome":"inactive"}
{"gene knocked down":"Plekho2 (GeneID 102595)","combined z-score class":"no change with or without drug","viability z-score with doxorubicin":-0.9,"viability z-score without drug":0.67,"Outcome":"inactive"}
{"gene knocked down":"Glrx (GeneID 93692)","combined z-score class":"no change with or without drug","viability z-score with doxorubicin":0.45,"viability z-score without drug":-1.35,"Outcome":"inactive"}
{"gene knocked down":"Cngb3 (GeneID 30952)","combined z-score class":"no change with or without drug","viability z-score with doxorubicin":0.45,"viability z-score without drug":-0.17,"Outcome":"inactive"}
{"gene knocked down":"Itpk1 (GeneID 217837)","combined z-score class":"no change with or without drug","viability z-score with doxorubicin":-1.35,"viability z-score without drug":-1.18,"Outcome":"inactive"}
{"gene knocked down":"Zmym3 (GeneID 56364)","combined z-score class":"no change with or without drug","viability z-score with doxorubicin":-1.8,"viability z-score without drug":0.51,"Outcome":"inactive"}
{"gene knocked down":"Gjb3 (GeneID 14620)","combined z-score class":"no change with or without drug","viability z-score with doxorubicin":0.56,"viability z-score without drug":0.34,"Outcome":"inactive"}
